Data on two molecules can be found in article doi:10.1101/2020.09.15.298083.

This assay addresses T1, CEP63 (human (endogenous in U87, 293T/17 and HeLa)) (UniProt Q96MT8).
T1 sequence: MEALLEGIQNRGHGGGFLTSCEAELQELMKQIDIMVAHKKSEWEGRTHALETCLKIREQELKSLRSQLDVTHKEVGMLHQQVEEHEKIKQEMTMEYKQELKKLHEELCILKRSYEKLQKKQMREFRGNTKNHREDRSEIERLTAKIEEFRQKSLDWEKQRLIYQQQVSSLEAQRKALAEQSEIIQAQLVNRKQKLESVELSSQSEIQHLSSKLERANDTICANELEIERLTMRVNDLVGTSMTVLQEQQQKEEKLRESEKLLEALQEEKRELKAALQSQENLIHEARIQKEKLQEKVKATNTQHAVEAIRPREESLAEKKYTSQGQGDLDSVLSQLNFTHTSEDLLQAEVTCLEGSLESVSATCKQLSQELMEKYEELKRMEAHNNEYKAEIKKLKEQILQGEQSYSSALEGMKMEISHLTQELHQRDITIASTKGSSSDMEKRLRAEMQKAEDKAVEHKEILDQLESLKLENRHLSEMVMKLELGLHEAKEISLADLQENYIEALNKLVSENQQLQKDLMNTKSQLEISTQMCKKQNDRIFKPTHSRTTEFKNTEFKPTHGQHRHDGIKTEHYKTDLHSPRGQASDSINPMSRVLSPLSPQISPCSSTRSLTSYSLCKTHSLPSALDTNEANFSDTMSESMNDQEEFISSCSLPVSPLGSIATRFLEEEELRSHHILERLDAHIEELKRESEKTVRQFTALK
The assay is described as follows: co-IP.

No constants are given. Whether binding was seen depends on the method and setting. In cells and extracts the contact can be indirect. Some entries that bind do so weakly or less than the wild type.

B1: DTX4 (protein, UniProt Q9Y2E6 1-619)
chain: MLLASAVVVWEWLNEHGRWRPYSPAVSHHIEAVVRAGPRAGGSVVLGQVDSRLAPYIIDLQSMNQFRQDTGTLRPVRRNYYDPSSAPGKGVVWEWENDNGSWTPYDMEVGITIQHAYEKQHPWIDLTSIGFSYVIDFNTMGQINRQTQRQRRVRRRLDLIYPMVTGTLPKAQSWPVSPGPATSPPMSPCSCPQCVLVMSVKAAVVNGSTGPLQLPVTRKNMPPPGVVKLPPLPGSGAKPLDSTGTIRGPLKTAPSQVIRRQASSMPTGTTMGSPASPPGPNSKTGRVALATLNRTNLQRLAIAQSRVLIASGVPTVPVKNLNGSSPVNPALAGITGILMSAAGLPVCLTRPPKLVLHPPPVSKSEIKSIPGVSNTSRKTTKKQAKKGKTPEEVLKKYLQKVRHPPDEDCTICMERLTAPSGYKGPQPTVKPDLVGKLSRCGHVYHIYCLVAMYNNGNKDGSLQCPTCKTIYGVKTGTQPPGKMEYHLIPHSLPGHPDCKTIRIIYSIPPGIQGPEHPNPGKSFSARGFPRHCYLPDSEKGRKVLKLLLVAWDRRLIFAIGTSSTTGESDTVIWNEVHHKTEFGSNLTGHGYPDANYLDNVLAELAAQGISEDSTAQEKD
For the molecule B1, the binding entry is “binds”.

B2: TANK-binding kinase 1 (TBK1) (protein, UniProt Q9UHD2 1-729)
chain: MQSTSNHLWLLSDILGQGATANVFRGRHKKTGDLFAIKVFNNISFLRPVDVQMREFEVLKKLNHKNIVKLFAIEEETTTRHKVLIMEFCPCGSLYTVLEEPSNAYGLPESEFLIVLRDVVGGMNHLRENGIVHRDIKPGNIMRVIGEDGQSVYKLTDFGAARELEDDEQFVSLYGTEEYLHPDMYERAVLRKDHQKKYGATVDLWSIGVTFYHAATGSLPFRPFEGPRRNKEVMYKIITGKPSGAISGVQKAENGPIDWSGDMPVSCSLSRGLQVLLTPVLANILEADQEKCWGFDQFFAETSDILHRMVIHVFSLQQMTAHKIYIHSYNTATIFHELVYKQTKIISSNQELIYEGRRLVLEPGRLAQHFPKTTEENPIFVVSREPLNTIGLIYEKISLPKVHPRYDLDGDASMAKAITGVVCYACRIASTLLLYQELMRKGIRWLIELIKDDYNETVHKKTEVVITLDFCIRNIEKTVKVYEKLMKINLEAAELGEISDIHTKLLRLSSSQGTIETSLQDIDSRLSPGGSLADAWAHQEGTHPKDRNVEKLQVLLNCMTEIYYQFKKDKAERRLAYNEEQIHKFDKQKLYYHATKAMTHFTDECVKKYEAFLNKSEEWIRKMLHLRKQLLSLTNQCFDIEEEVSKYQEYTNELQETLPQKMFTASSGIKHTMTPIYPSSNTLVEMTLGMKKLKEEMEGVVKELAENNHILERFGSLTMDGGLRNVDCL
With B2, the binding entry is listed as “binds”.
